Measurements: PubChem BioAssay AID662 (National Center for Advancing Translational Sciences (NCATS), 2007)
This is one part of the list. Further columns of the screen follow, without active or inactive calls. Most of these compounds were active or inconclusive in the main read-out, so they are no random draw. The note in brackets gives the kind of curve behind each potency; many fits are weak.

Assay: Cell signaling CRE-BLA (Fsk stim)
Conditions: CHO CRE-bla reporter (cAMP response element driving beta-lactamase), forskolin EC10, beta-lactamase ratio; measured here: 460 nm blue channel
In short: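 AC50 values, positive or negative, reflect shifts in EC10 NKH 477-induced CRE-bla reporter activity in CHO cells. Incubation lasted 3 h at 37 °C before CCF4 substrate (2 h, room temperature) and ratiometric 460/530 nm reading.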

Structure (SMILES)	AC50
Cc1cc(Nc2ccc(C)c(C)c2)n2nc(C)nc2n1	5.01 µM [rising, partial curve]
CCOC(=O)Cn1c(=NC(=O)CSC(C)=O)sc2ccccc21	15.8 µM [falling, single point]
COc1ncc2nc(-c3ccc(Cl)cc3)c(=O)n(Cc3cccs3)c2n1	12.6 µM [rising, partial curve]
CCCN(CCC)C1CC(=O)N(Cc2ccccc2)C1=O (configuration not stated)	0.126 µM [falling, full curve, poor fit]
Cc1ccc(Cn2ncc3c(N4CCCC4)ncnc32)cc1	7.94 µM [rising, partial curve]
CCOC(=O)N1CCN(C(=O)c2ccc3c(=O)n(Cc4ccc(OC)cc4)c(=S)[nH]c3c2)CC1	0.501 µM [falling, partial curve]
COc1ccc(OC)c(-c2cc(C(=O)Nc3c(C)nn(Cc4ccc(Cl)cc4)c3C)no2)c1	2.51 µM [rising, full curve]
O=C1CCCC2=C1C(c1cccc(Br)c1)n1nc(-c3ccco3)nc1N2 (configuration not stated)	10 µM [rising, single point]
Cc1nc(NC(=O)c2ccccc2)sc1-c1csc(NCc2ccco2)n1	2 µM [falling, partial curve]
Cn1c2ccc(Cl)cc2c2nc3ccccc3nc21	5.01 µM [rising, partial curve]
C=CCn1cc(C(=O)NCCCOCC)c(=O)c2cc(S(=O)(=O)N(CC)CC)ccc21	20 µM [rising, single point]
COCCn1c(=O)c(-c2cccc(Cl)c2)nc2cncnc21	25.1 µM [rising, single point]
Cc1ccc(CNC(=O)c2cc3c(=O)n4cccc(C)c4nc3n(CC3CCCO3)c2=N)cc1 (configuration not stated)	20 µM [rising, single point]
COc1ccc(-c2nc(CSCC(=O)N3CCN(c4cccc(C)c4)C(C)C3)c(C)o2)cc1OC (configuration not stated)	2.51 µM [rising, partial curve]
COc1cc(C(=O)Nc2ccc(N(C)C)cc2)cc(OC)c1OC	15.8 µM [rising, partial curve]
CCn1c(COc2cccc(OC)c2)nnc1SCC(=O)Nc1cccc(OC)c1	0.00316 µM [falling, full curve, poor fit]
CCN(CC)CCCNc1cc2n(c(=O)n1)CCc1cc(OC)c(OC)cc1-2	12.6 µM [rising, partial curve]
COc1cc(C(=O)Nc2ccc(-n3cnnn3)c(C)c2)cc(OC)c1OC	12.6 µM [rising, partial curve]
O=C(NC1CCCCC1)c1sc(=S)n2c1[nH]c(=O)c1ccccc12	0.126 µM [falling, full curve, poor fit]
COc1ccc(C2c3c(-c4cc(Cl)c(C)cc4O)n[nH]c3C(=O)N2Cc2cccnc2)cc1OC (configuration not stated)	3.16 µM [rising, partial curve]
O=C1CSC(=O)N1CCOCCN1C(=O)CSC1=O	3.98 µM [rising, single point]
CCCn1c(=O)n(C)c(=O)c2c(SCc3cc(C(C)=O)ccc3OCC)nc(C3CC3)nc21	2.51 µM [rising, full curve]
NC(=O)CCn1nc(-c2ccccc2)c2ccccc2c1=O	10 µM [rising, single point]

Structure (SMILES)	AC50
Cc1ccc(-c2nnc3ccc(SCC(=O)Nc4cc(C)on4)nn23)cc1	10 µM [rising, single point]
Cc1cccc(OCc2nnc(SCC(=O)Nc3ccc(C)c(C)c3)o2)c1	0.794 µM [falling, full curve]
Cc1ccc(OCC(=O)n2nc(C)cc2C)c(Br)c1	0.00316 µM [rising, full curve, poor fit]
CCOc1ccccc1NC(=O)CC1Nc2cc(C)c(C)cc2NC1=O (configuration not stated)	10 µM [rising, partial curve]
CC1C2CC(C(CN(C)C)/C2=N/O)C1(C)C (configuration not stated)	0.00316 µM [falling, full curve]
COCc1c(C(=O)OCc2nc(N)nc(Nc3ccccc3C)n2)oc2ccccc12	10 µM [rising, partial curve]
Brc1cc2c(cc1Cn1c(-c3cncs3)nc3ccccc31)OCO2	2 µM [rising, full curve]
COc1cccc(NC(=O)N2CCC(N3CCCCC3)CC2)c1	15.8 µM [falling, partial curve]
COc1ccc(N2CCN(C(=O)C3CCCN(S(=O)(=O)c4cccc5cccnc45)C3)CC2)cc1 (configuration not stated)	15.8 µM [falling, single point]
COc1cc(NC(=O)c2ccccc2Cl)c(OC)cc1NC(=O)CN1CCOCC1	7.94 µM [rising, single point]
O=C(CN1CCc2ccccc2C1)Nc1ccccc1N1CCCCCC1	12.6 µM [rising, partial curve]
O=C(CN1C(=O)C2C3C=CC(C3)C2C1=O)N1CCc2ccccc2C1 (configuration not stated)	0.00398 µM [falling, full curve, poor fit]
CC1(C)Cc2c(c(-c3ccco3)nc3n[nH]c(N)c23)CO1	12.6 µM [rising, partial curve]
Cc1ccccc1-n1c(SC/C(O)=C(\C#N)c2nc3ccccc3[nH]2)nnc1-c1ccncc1	15.8 µM [rising, single point]
COc1ccc(-n2nnnc2SCC#CCO)cc1	31.6 µM [falling, partial curve, poor fit]
COc1cc(C2Nc3cc(Cl)c(S(N)(=O)=O)cc3S(=O)(=O)N2)cc(OC)c1OC (configuration not stated)	5.01 µM [rising, single point]
CC(C)=C1C2C=CC1C(C(=O)Nc1cc(C)ccc1C)C2C(=O)O (configuration not stated)	0.00316 µM [falling, full curve, poor fit]
CCOC(=O)c1c(N)sn(-c2ccccc2C)c1=S	2 µM [rising, full curve]
CCN(Cc1cc2cc(OC)ccc2[nH]c1=O)C(=O)c1ccncc1	15.8 µM [rising, single point]
Cc1ccc(Cn2c(NCCc3ccccc3)nc3c2c(=O)n(C)c(=O)n3C)cc1	3.98 µM [rising, full curve]
OC(COc1ccc(Cl)cc1)CN1CCCCC1 (configuration not stated)	0.00631 µM [falling, full curve, poor fit]
COc1ncc2nc(-c3cn(C)c4ccccc34)c(=O)n(CCc3ccccc3)c2n1	1 µM [rising, full curve]
CCCCCSc1nc2c(c(=O)[nH]c(=O)n2C)n1C(C)C	10 µM [rising, partial curve]

Structure (SMILES)	AC50
COc1ccc(-c2nc3cnc(N4CCN(C)CC4)nc3n(Cc3cccc(OC)c3)c2=O)cc1	1.26 µM [rising, full curve]
COCCN1Cc2cccc(C(=O)Nc3cccc(OC)c3)c2C1=O	0.126 µM [rising, full curve]
COc1ccccc1C(=O)Nc1c2c(nn1-c1cccc(C)c1C)CS(=O)C2 (configuration not stated)	10 µM [rising, partial curve]
CCCCCCn1c(-c2ccco2)nc2oc3cc(OC)ccc3c(=O)c2c1=O	1.58 µM [rising, full curve]
O=C(CCCn1c(=S)[nH]c2ccccc2c1=O)N1CCCCC1	10 µM [rising, partial curve]
Cn1c(NCc2ccco2)nc2ccccc21	5.01 µM [falling, full curve]
COc1ccc(C)cc1NC(=O)Cn1cnc2sc(C)c(S(=O)(=O)N3CCOCC3)c2c1=O	12.6 µM [rising, single point]
COc1ccc(CCn2c(C)cc3c(c2=O)C(c2ccncc2)C(C#N)=C(N)O3)cc1OC (configuration not stated)	0.631 µM [rising, full curve, poor fit]
O=C(c1cccc(C(=O)N2CCc3ccccc32)n1)N1CCc2ccccc21	2.51 µM [rising, full curve, poor fit]
COc1ccc2[nH]cc(CCNc3ccnc(-c4cccc(C#N)c4)n3)c2c1	5.01 µM [falling, single point]
Clc1cccc(Cl)c1NC1=NCCN1	31.6 µM [falling, single point]
COc1ccc(C(=O)N2c3cc4c(cc3C(C)=CC2(C)C)OCO4)cc1	12.6 µM [falling, partial curve]
COc1ccccc1NC(=O)CSc1ncnc2c1oc1ccccc12	0.501 µM [rising, full curve]
COc1ccc(OC)c2sc(N3CCCCC3)nc12	10 µM [rising, single point]
Cc1cccc(NC(=O)CN2CCCN(S(=O)(=O)c3ccc(Br)s3)CC2)c1	0.398 µM [falling, partial curve]
Cc1c(NC(=O)C(C)Sc2nnc(-c3ccccc3)o2)c(=O)n(-c2ccccc2)n1C (configuration not stated)	0.631 µM [falling, full curve]
O=C(c1ccc(=O)n(Cc2ccccc2)n1)N1CCN(C/C=C/c2ccccc2)CC1	1.26 µM [rising, partial curve]
COc1ccc(-c2[nH]ncc2-c2ccc3c(c2)OCCO3)c(O)c1	0.316 µM [falling, full curve]
O=c1c(-c2cccs2)nc2cnc(Oc3ccccc3)nc2n1Cc1cccs1	1.26 µM [rising, partial curve]
O=C(c1nc2n(n1)C(c1ccc(Cl)cc1)C=C(c1ccccc1)N2)N1CCOCC1 (configuration not stated)	15.8 µM [rising, single point]
COc1ccc(CCNC(=O)c2cc3ccccn3n2)c(OC)c1OC	10 µM [rising, single point]
